The target in test [1] is T1, FOXA1 forkhead domain-containing region (FKCR, a.a. 141-294) (UniProt P55317).
T1 sequence (looked up): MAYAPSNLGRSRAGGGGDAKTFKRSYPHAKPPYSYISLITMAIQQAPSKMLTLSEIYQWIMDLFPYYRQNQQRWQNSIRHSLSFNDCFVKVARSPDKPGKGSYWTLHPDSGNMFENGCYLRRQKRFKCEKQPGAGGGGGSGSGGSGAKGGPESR
The test can be described thus: GST pulldown, GST-STAT2 fragment on beads with 293T lysate (FIG. 9E).

For test [2], the target named is T2, GST-tagged STAT2 DNA binding domain (a.a. 312-486) (UniProt P52630 312-486).
T2 construct: range 312-486; also called STAT2-DBD; STAT2 DBD; not shown: GST tag
T2 sequence (looked up): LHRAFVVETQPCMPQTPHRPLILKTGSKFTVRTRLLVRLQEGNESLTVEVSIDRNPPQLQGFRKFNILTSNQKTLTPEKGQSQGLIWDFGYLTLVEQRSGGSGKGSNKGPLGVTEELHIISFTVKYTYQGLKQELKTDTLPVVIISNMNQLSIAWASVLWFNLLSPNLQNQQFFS
The test can be described thus: GST pulldown (FIG. 8D).

No constants are given. Whether binding was seen depends on the method and setting. Binding seen in cells or lysates may run through a third protein. Some results given as binding are weak or reduced against the parent protein; the word gives no strength.

Take “GST-tagged STAT2 DNA binding domain (a.a. 312-486) (from UniProt P52630 312-486)”: the binding result in test [1] is “binds”.

B1: FOXA1-N216A/H220A/N225A (protein, UniProt P55317 1-472, looked up)
chain: MLGTVKMEGHETSDWNSYYADTQEAYSSVPVSNMNSGLGSMNSMNTYMTMNTMTTSGNMTPASFNMSYANPGLGAGLSPGAVAGMPGGSAGAMNSMTAAGVTAMGTALSPSGMGAMGAQQAASMNGLGPYAAAMNPCMSPMAYAPSNLGRSRAGGGGDAKTFKRSYPHAKPPYSYISLITMAIQQAPSKMLTLSEIYQWIMDLFPYYRQNQQRWQASIRASLSFADCFVKVARSPDKPGKGSYWTLHPDSGNMFENGCYLRRQKRFKCEKQPGAGGGGGSGSGGSGAKGGPESRKDPSGASNPSADSPLHRGVHGKTGQLEGAPAPGPAASPQTLDHSGATATGGASELKTPASSTAPPISSGPGALASVPASHPAHGLAPHESQLHLKGDPHYSFNHPFSINNLMSSSEQQHKLDFKAYEQALQYSPYGSTLPASLPLGSASVTTRSPIEPSALEPAYYQGVYSRPVLNTS
On to B1, for which the binding entry in test [2] is listed as “binds”.

The values are drawn from US20230079757A1, “METHODS AND MATERIALS FOR TREATING CANCER” (Mayo Foundation for Medical Education and Research, priority 2020, published 2023).
